In patent US9156838B2, “Fused heterocyclic compound” (Sumitomo Chemical Company, Limited, priority 2012, dated 2015):
Some of these results come from one statement about several compounds together.

What was measured:
Type in all cases: in vivo
[1] = test system: Aphis gossypii; test: Test Example 1: foliar spray on cucumber seedling inoculated with Aphis gossypii; conditions: 500 ppm active ingredient, 20 ml sprayed on cucumber seedling, six days after spraying
[2] = test system: Nilaparvata lugens; test: Test Example 3: spray on rice seedling, Nilaparvata lugens larvae released; conditions: 500 ppm, 10 ml sprayed on rice seedling, third-fourth instar larvae, after 6 days
[3] = test system: Nilaparvata lugens; test: Test Example 4: drench at foot of rice seedling, Nilaparvata lugens larvae released; conditions: 500 ppm, 5 ml drench at foot of rice seedling, larvae released after 7 days, examined after further 6 days
[4] = test system: Bemisia tabaci; test: Test Example 5: spray on tomato seedling with Bemisia tabaci instar larvae; conditions: 500 ppm, 20 ml/cup sprayed on tomato seedling, after 7 days
[5] = test system: Plutella xylostella; test: Test Example 6: sprayed cabbage foliage, Plutella xylostella larvae; conditions: 500 ppm, 20 mL/cup sprayed on cabbage, second instar larvae, 25° C. for 5 days
[6] = test system: Adoxophyes orana fasciata; test: Test Example 7: sprayed apple tree, Adoxophyes orana fasciata first-instar; conditions: 500 ppm, 20 mL/cup sprayed on apple tree, after 7 days
[7] = test system: Musca domestica; test: Test Example 8: treated filter paper with sucrose bait, Musca domestica female imagoes; conditions: 500 ppm, 0.7 ml on filter paper, after 24 hours
[8] = test system: Culex pipiens pallens; test: Test Example 10: Culex pipiens pallens last-instar larvae in treated water; conditions: active ingredient concentration 3.5 ppm in water, one day later

SMILES | controlling value [1] | controlling value [2] | controlling value [3] | controlling value [4] | death rate [5] | death rate [6] | death rate [7] | death rate [8]
CCS(=O)(=O)c1cc(SC(F)(F)F)ccc1-c1nc2cc(SC(F)(F)F)cnc2n1C [Compound 9, 2-(2-ethylsulfonyl-4-trifluoromethylsulfanylphenyl)3-methyl-6-trifluoromethylsulfanyl-3H-imidazo[4,5-b]pyridine] | ≥ 90% | ≥ 90% | ≥ 90% | ≥ 90% | ≥ 80% | ≥ 90% | ≥ 100% | ≥ 91%
CCS(=O)(=O)c1cc(SC(F)(F)F)ccc1-c1nc2cc(C(F)(F)C(F)(F)F)cnc2n1C [Compound 10, 2-(2-ethylsulfonyl-4-trifluoromethylsulfanylphenyl)3-methyl-6-pentafluoroethyl-3H-imidazo[4,5-b]pyridine] | ≥ 90% | ≥ 90% | ≥ 90% | ≥ 90% | ≥ 80% | ≥ 90% | ≥ 100% | ≥ 91%
